Measured data: PubChem BioAssay AID1259405 (NCATS, 2018)
Shown is one part, drawn at random, of about 50,000 reagents tested. About 4,000 of them (8%) were called active. 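Mouse siRNA library applied to hamster cells; one well for each siRNA.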 The numbers tell different reagents against one gene apart. No sequences are given here.

Aim: 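Knock-downs that lift recombinant protein yield in hamster ovary cells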 (primary screen)
System: Chinese hamster CHO-K1 ovary cells with stable secreted eGFP expression
Reagent: single siRNA against mouse genes, 0.8 pmol siRNA per well (2 µl of 400 nM stock)
Time to read-out: 3 days
Measured: 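Per-well intracellular GFP measured by laser scanning cytometry, plus viability from ATP luminescence, each relative to plate median of non-targeting control wells, in %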
Direction: GFP, % of control: higher = more GFP per well, higher productivity; viability (ATP), % of control: higher = more viable cells (more ATP)
Hit rule: 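Called active when intracellular GFP, relative to negative control, is at or above 120%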

gene knocked down,reagent,"GFP, % of control","viability (ATP), % of control",Outcome
Ublcp1 (ubiquitin-like domain containing CTD phosphatase 1),1,87.4,66.6,inactive
Ublcp1 (ubiquitin-like domain containing CTD phosphatase 1),2,78.6,88,inactive
Ublcp1 (ubiquitin-like domain containing CTD phosphatase 1),3,82.9,48.4,inactive
"Pdgfd (platelet-derived growth factor, D polypeptide)",1,58.2,68.1,inactive
"Pdgfd (platelet-derived growth factor, D polypeptide)",2,157,106,active
"Pdgfd (platelet-derived growth factor, D polypeptide)",3,63.9,117,inactive
L3mbtl4 (L3MBTL4 histone methyl-lysine binding protein),1,159,121,active
L3mbtl4 (L3MBTL4 histone methyl-lysine binding protein),2,103,72.6,inactive
L3mbtl4 (L3MBTL4 histone methyl-lysine binding protein),3,71.5,56,inactive
Ddit4l (DNA-damage-inducible transcript 4-like),1,104,117,inactive
Ddit4l (DNA-damage-inducible transcript 4-like),2,93.9,49.3,inactive
Ddit4l (DNA-damage-inducible transcript 4-like),3,113,72.2,inactive
Nrsn2 (neurensin 2),1,35,61.4,inactive
Nrsn2 (neurensin 2),2,84.3,71.4,inactive
Nrsn2 (neurensin 2),3,117,83.7,inactive
Timm17b (translocase of inner mitochondrial membrane 17b),1,72.4,51.2,inactive
Timm17b (translocase of inner mitochondrial membrane 17b),2,88,70.1,inactive
Timm17b (translocase of inner mitochondrial membrane 17b),3,67,56.3,inactive
Slc22a14,1,56.9,52.5,inactive
Slc22a14,2,99.9,87.1,inactive
Slc22a14,3,88.4,84.3,inactive
"P2ry1 (purinergic receptor P2Y, G-protein coupled 1)",1,52.7,28.5,inactive
"P2ry1 (purinergic receptor P2Y, G-protein coupled 1)",2,97.1,59.5,inactive
"P2ry1 (purinergic receptor P2Y, G-protein coupled 1)",3,82.2,53.8,inactive

Reprinted from the listing, 8 entries:
gene knocked down,reagent,"GFP, % of control","viability (ATP), % of control",Outcome
"Pdgfd (platelet-derived growth factor, D polypeptide)",2,157,106,active
"Pdgfd (platelet-derived growth factor, D polypeptide)",3,63.9,117,inactive
L3mbtl4 (L3MBTL4 histone methyl-lysine binding protein),1,159,121,active
L3mbtl4 (L3MBTL4 histone methyl-lysine binding protein),2,103,72.6,inactive
L3mbtl4 (L3MBTL4 histone methyl-lysine binding protein),3,71.5,56,inactive
Ddit4l (DNA-damage-inducible transcript 4-like),1,104,117,inactive
Ddit4l (DNA-damage-inducible transcript 4-like),2,93.9,49.3,inactive
Ddit4l (DNA-damage-inducible transcript 4-like),3,113,72.2,inactive

Additional entries:
gene knocked down,reagent,"GFP, % of control","viability (ATP), % of control",Outcome
Nkg7 (natural killer cell group 7 sequence),1,43.6,43.5,inactive
Nkg7 (natural killer cell group 7 sequence),2,114,71.2,inactive
Nkg7 (natural killer cell group 7 sequence),3,98.1,81.8,inactive
Cep43 (centrosomal protein 43),1,70.1,77.6,inactive
Cep43 (centrosomal protein 43),2,36.3,50.9,inactive
Cep43 (centrosomal protein 43),3,40.4,63.3,inactive
5930422O12Rik (RIKEN cDNA 5930422O12 gene),1,62.1,76.2,inactive
5930422O12Rik (RIKEN cDNA 5930422O12 gene),2,66.3,79.4,inactive
5930422O12Rik (RIKEN cDNA 5930422O12 gene),3,78.3,115,inactive
"Adhfe1 (alcohol dehydrogenase, iron containing, 1)",1,74.7,66,inactive
"Adhfe1 (alcohol dehydrogenase, iron containing, 1)",2,78.6,68,inactive
"Adhfe1 (alcohol dehydrogenase, iron containing, 1)",3,83.6,75.7,inactive
Klhl38 (kelch-like 38),1,60.4,47.6,inactive
Klhl38 (kelch-like 38),2,80.8,87.3,inactive
Klhl38 (kelch-like 38),3,121,116,active
Ess2 (ess-2 splicing factor),1,64.6,70.5,inactive
Ess2 (ess-2 splicing factor),2,103,69.7,inactive
Ess2 (ess-2 splicing factor),3,125,74.6,active
Tssk6 (testis-specific serine kinase 6),1,70.4,50,inactive
"Cyp1a1 (cytochrome P450, family 1, subfamily a, polypeptide 1)",1,58.2,48.9,inactive
"Cyp1a1 (cytochrome P450, family 1, subfamily a, polypeptide 1)",2,95.5,77.7,inactive
"Cyp1a1 (cytochrome P450, family 1, subfamily a, polypeptide 1)",3,115,82.6,inactive
Peg12 (paternally expressed 12),1,43.9,53.8,inactive
Peg12 (paternally expressed 12),2,67.7,44.6,inactive
Peg12 (paternally expressed 12),3,63.4,77.1,inactive
Def8 (differentially expressed in FDCP 8),1,63.4,80.8,inactive
Def8 (differentially expressed in FDCP 8),2,93.9,74.8,inactive
Def8 (differentially expressed in FDCP 8),3,119,83.9,inactive
Fa2h (fatty acid 2-hydroxylase),1,54.6,73.9,inactive
Fa2h (fatty acid 2-hydroxylase),2,73.8,77.4,inactive
Fa2h (fatty acid 2-hydroxylase),3,71.6,64.3,inactive
Slc25a11,1,139,95.7,active
Slc25a11,2,105,115,inactive
Slc25a11,3,142,73.1,active
